Source: PubChem BioAssay AID504834 (National Center for Advancing Translational Sciences (NCATS), 2011)
The campaign covered roughly 320,000 compounds. About 22,000 (6.9%) were called active. The inconclusive results got no clear call from the source; some entries with a clear call stand among them for comparison. The call rests on the fitted dose curve; in most records, active means well fitted inhibition curve with a large enough effect; inconclusive means small, poorly fitted or top-dose-only effect, or another doubt; inactive means no such curve, though single readings can be large or run the other way. Potencies beside an inconclusive call are fits to weak or partial responses and may not hold up.

Test: Primary qHTS for delayed death inhibitors of the malarial parasite plastid, 96 hour incubation
Details: P. falciparum luciferase reporter growth; series mostly up to 28.7 µM
In short: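 Plates of compound plus infected erythrocytes (2% hematocrit, 0.05% parasitemia final) incubate 96 hours, 37 C, 5% CO2. Detection reagent added; reduced luminescence from the parasites' luciferase reporter flags inhibition.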
Potency means the concentration at half of the fitted maximal effect.

| SMILES | Potency |
| --- | --- |
| COc1cccc(-c2nc(SCC(=O)Nc3nc(-c4ccccc4)c(C)s3)[nH]c(=O)c2C#N)c1 | inconclusive: 18.5 µM [inhibitor, single point] |
| COc1ccc(NC(=O)C(=O)Nc2cccc3cccnc23)c(OC)c1 | inconclusive: 18.5 µM [inhibitor, single point] |
| Cc1ccnc(NC(=O)c2ccc([N+](=O)[O-])s2)c1 | active: 7.38 µM |
| CC(=O)Cc1cc(O)c2ccccc2c1OC(=O)c1ccccc1 | inactive |
| COc1ccc(NC(=O)N2CCCC(C(=O)NCc3ccccc3F)C2)cc1 (stereo unspecified) | inactive |
| Cc1ccc(C)c(SCC(=O)NC(=O)NC2CCCC2)c1 | inconclusive: 16.5 µM [inhibitor, single point] |
| CCN1CCN(Cc2cccc(Oc3ccccc3)c2)CC1 | inactive |
| CCC1(C)Cc2c(sc3nc(SC)[nH]c(=O)c23)CO1 (stereo unspecified) | active: 9.28 µM |
| COc1ccc2c(CC(=O)Nc3ccccc3N3CCOCC3)coc2c1 | inconclusive: 2.62 µM [inhibitor, partial curve] |
| Cn1c(=O)c2c(ncn2CCCc2ccccc2)n(C)c1=O | inconclusive: 13.1 µM [inhibitor, single point] |
| Cc1ccccc1NS(=O)(=O)c1ccc2[nH]cc(C(=O)NC3CCCCC3)c(=O)c2c1 | active: 11.7 µM |
| CSCCC(NC(=O)c1cccc(S(=O)(=O)N2CCOCC2)c1)C(=O)Nc1cccc(C)c1 (stereo unspecified) | inconclusive: 13.1 µM [inhibitor, single point] |
| CC(C)Sc1cc(N2CCCC2)nc(-c2ccccc2Cl)n1 | inconclusive: 10.4 µM [inhibitor, single point] |
| COc1cccc(COC(=O)c2sc3nc4n(c(=O)c3c2C)CCC4)c1OC | inconclusive: 7.38 µM [inhibitor, partial curve] |
| c1ccc(CNc2nc(-c3cccnc3)cs2)cc1 | inactive |
| COc1ccc(CCNC(=O)CSc2cccc3cccnc23)cc1OC | inactive |
| Oc1ccc(N=Nc2ccc3c(c2)OCO3)c2ccccc12 | inconclusive: 1.04 µM [inhibitor, full curve] |
| COc1ccc(N2CCN(C(=O)c3cc4c(C)nc5ccccc5c4o3)CC2)cc1 | active: 0.828 µM |
| CN(CCNC(=O)C1CCN(c2ncnc3c2nc2n3CCCCC2)CC1)Cc1ccccc1 | inconclusive: 18.5 µM [inhibitor, single point] |
| NC(=O)c1nsc(C(=O)N(Cc2cccnc2)C(C(=O)NCc2ccccc2)c2ccc(O)cc2)c1N (stereo unspecified) | inconclusive: 18.5 µM [inhibitor, single point] |
| Cc1nn(-c2ccccc2)c2sc(C(=O)C(C#N)c3ccccn3)cc12 (stereo unspecified) | inactive |
| CCC(=O)N=c1sc2c(C)cc(C)cc2n1CC(=O)OC | inactive |
| Cc1cccc(-c2oc3ccccc3c2-c2ccc3c(c2)OCO3)c1 | active: 9.28 µM |

2 compounds drawn at random from those above, as already listed:

| SMILES | Potency |
| --- | --- |
| COc1cccc(-c2nc(SCC(=O)Nc3nc(-c4ccccc4)c(C)s3)[nH]c(=O)c2C#N)c1 | inconclusive: 18.5 µM [inhibitor, single point] |
| NC(=O)c1nsc(C(=O)N(Cc2cccnc2)C(C(=O)NCc2ccccc2)c2ccc(O)cc2)c1N (stereo unspecified) | inconclusive: 18.5 µM [inhibitor, single point] |

Remaining list, next part

| SMILES | Potency |
| --- | --- |
| CCOc1ccc2nc(SCc3ccc(OC)cc3)sc2c1 | inconclusive: 16.5 µM [inhibitor, single point] |
| CCOC(=O)N1CCc2c(sc(NC(=O)CCS(=O)(=O)c3ccccc3)c2C(N)=O)C1 | active: 14.7 µM |
| O=C(O)c1ccc(N/N=C/c2ccc(-c3cccc(Cl)c3)o2)cc1 | inactive |
| COc1ccc(/C=N\NC(=O)c2cc3c(ccc4ccccc43)o2)cc1O | inconclusive: 16.5 µM [inhibitor, partial curve] |
| CN(C(=O)Cn1cnc2sccc2c1=O)C1CCCCC1 | inactive |
| Cc1ccc(/C=N/Nc2ccc(F)cc2F)s1 | inconclusive: 18.5 µM [inhibitor, single point] |
| Cn1c(=O)c([N+](=O)[O-])c(N2CCSCC2)c2ccccc21 | inconclusive: 18.5 µM [inhibitor, single point] |
| Cc1cc(C)cc(C(=O)NC(CC(N)=O)c2ccc(NCC3CC3)c([N+](=O)[O-])c2)c1 (stereo unspecified) | inconclusive: 13.1 µM [inhibitor, single point] |
| CCC(c1nnc(SCC(=O)Nc2cccnc2Cl)n1-c1ccccc1)N(C)C (stereo unspecified) | inconclusive: 1.47 µM [inhibitor, partial curve, poor fit] |
| CCN1CCN(CCCNC(=O)CCC(=O)N2CC(C)Oc3ccc(C)cc32)CC1 (stereo unspecified) | inactive |
| Cc1sc2ncn(CC(=O)NCC(=O)N(C)C3CCCCC3)c(=O)c2c1C | inconclusive: 11.7 µM [inhibitor, partial curve, poor fit] |
| COCCNc1nc(-c2ccc(OC)cc2)c(-c2ccc(OC)cc2)s1 | inconclusive: 4.15 µM [inhibitor, single point] |
| Cc1ccc2[nH]c(=O)c(C(c3nnnn3C(C)(C)C)N3CCN(C(=O)c4ccco4)CC3)cc2c1 (stereo unspecified) | inconclusive: 2.62 µM [inhibitor, partial curve, poor fit] |
| CCOC(=O)c1c(CN2CCOCC2)oc2ccc(OC(C)=O)cc12 | inactive |
| O=C(NCc1cccnc1)c1cccc(Cl)c1 | inconclusive: 16.5 µM [inhibitor, single point] |
| COc1ccc(S(=O)(=O)N2CCOC23CCN(S(=O)(=O)c2ccc(Cl)cc2)CC3)cc1 | inconclusive: 11.7 µM [inhibitor, partial curve] |
| Cc1c(C(=O)O)cccc1N1C(=O)Nc2ccccc2N1O | inconclusive: 13.1 µM [inhibitor, single point] |
| CCCCn1c(=NC(=O)c2cccnc2)c(C#N)cc2c(=O)n3cccc(C)c3nc21 | inconclusive: 0.208 µM [inhibitor, full curve] |
| COc1ccc(C(=O)OC(C)C(=O)NCC2CCCCC2)cc1S(=O)(=O)N1CCOCC1 (stereo unspecified) | inconclusive: 13.1 µM [inhibitor, partial curve, poor fit] |
| Cc1cc(C)n(C(C)Sc2ccccc2)n1 (stereo unspecified) | inactive |
| Cc1onc(-c2ccccc2)c1C(=O)Nc1nnc(C(C)C)s1 | inconclusive: 10.4 µM [inhibitor, single point] |
| Cc1nn(C)c(C(=O)N2CCN(C(=O)c3ccco3)CC2)c1Br | inactive |
| COc1ccc(S(=O)(=O)N(CC(=O)NCc2ccncc2)c2ccc(C)cc2)cc1OC | inconclusive: 10.4 µM [inhibitor, single point] |
